According to the supplement of paper PMC7661543:
The effect of the compound repeats well; differences between the knockouts mostly do not.

Test system: SKBR3
Test: relative cell number vs DMSO control (72 h) (% of DMSO); higher = less growth inhibition (more cells)
Description: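 QMAP-Seq: a pool of 5 breast cancer cell lines (ZR-75-1, SKBR3, HCC-38, MDA-MB-231, BT-20), each carrying 12 doxycycline-inducible Cas9 sgRNA perturbations (11 knockouts plus non-targeting sgNT), was treated with compounds for 72 h at four 10-fold doses (10 nM-10 uM or 1 nM-1 uM range). Barcodes were amplified and sequenced, and cell number was interpolated from 293T spike-in standard curves. The result is expressed as % of the median of DMSO wells. Two biological replicates.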

Cn1nnc2c(C(N)=O)ncn2c1=O [Temozolomide]
Conditions | relative cell number
sgRNA knockout: sgATF3, 10 nM | 115
sgRNA knockout: sgATF3, 100 nM | 113
sgRNA knockout: sgATF3, 1000 nM | 125
sgRNA knockout: sgATF3, 10000 nM | 126
sgRNA knockout: sgATF4, 10 nM | 100
sgRNA knockout: sgATF4, 100 nM | 94.9
sgRNA knockout: sgATF4, 1000 nM | 97.9
sgRNA knockout: sgATF4, 10000 nM | 115
sgRNA knockout: sgATF6, 10 nM | 86.8
sgRNA knockout: sgATF6, 100 nM | 79.2
sgRNA knockout: sgATF6, 1000 nM | 98.7
sgRNA knockout: sgATF6, 10000 nM | 89.8
sgRNA knockout: sgATG7, 10 nM | 98.1
sgRNA knockout: sgATG7, 100 nM | 95.1
sgRNA knockout: sgATG7, 1000 nM | 92
sgRNA knockout: sgATG7, 10000 nM | 112
sgRNA knockout: sgERN1, 10 nM | 108
sgRNA knockout: sgERN1, 100 nM | 101
sgRNA knockout: sgERN1, 1000 nM | 105
sgRNA knockout: sgERN1, 10000 nM | 118
sgRNA knockout: sgHSF1, 10 nM | 98.7
sgRNA knockout: sgHSF1, 100 nM | 89.3
sgRNA knockout: sgHSF1, 1000 nM | 78.2
sgRNA knockout: sgHSF1, 10000 nM | 110
sgRNA knockout: sgHSF2, 10 nM | 90.3
sgRNA knockout: sgHSF2, 100 nM | 87.4
sgRNA knockout: sgHSF2, 1000 nM | 117
sgRNA knockout: sgHSF2, 10000 nM | 93.7
sgRNA knockout: sgKEAP1, 10 nM | 99.5
sgRNA knockout: sgKEAP1, 100 nM | 104
sgRNA knockout: sgKEAP1, 1000 nM | 111
sgRNA knockout: sgKEAP1, 10000 nM | 98.4
sgRNA knockout: sgNFE2L2, 10 nM | 110
sgRNA knockout: sgNFE2L2, 100 nM | 79.6
sgRNA knockout: sgNFE2L2, 1000 nM | 98.3
sgRNA knockout: sgNFE2L2, 10000 nM | 111
sgRNA knockout: sgSLC35F2, 10 nM | 96.3
sgRNA knockout: sgSLC35F2, 100 nM | 86.1
sgRNA knockout: sgSLC35F2, 1000 nM | 94.7
sgRNA knockout: sgSLC35F2, 10000 nM | 87.8
sgRNA knockout: sgXBP1, 10 nM | 104
sgRNA knockout: sgXBP1, 100 nM | 91.5
sgRNA knockout: sgXBP1, 1000 nM | 116
sgRNA knockout: sgXBP1, 10000 nM | 123

Cc1cc2c(C(C)C)c(O)c(O)c(C=O)c2c(O)c1-c1c(C)cc2c(C(C)C)c(O)c(O)c(C=O)c2c1O [Gossypol]
Conditions | relative cell number
sgRNA knockout: sgATF3, 10 nM | 108
sgRNA knockout: sgATF3, 100 nM | 96.1
sgRNA knockout: sgATF3, 1000 nM | 129
sgRNA knockout: sgATF3, 10000 nM | 33.2
sgRNA knockout: sgATF4, 10 nM | 93.4
sgRNA knockout: sgATF4, 100 nM | 101
sgRNA knockout: sgATF4, 1000 nM | 98.9
sgRNA knockout: sgATF4, 10000 nM | 24.9
sgRNA knockout: sgATF6, 10 nM | 103
sgRNA knockout: sgATF6, 100 nM | 89.8
sgRNA knockout: sgATF6, 1000 nM | 104
sgRNA knockout: sgATF6, 10000 nM | 27.3
sgRNA knockout: sgATG7, 10 nM | 99.4
sgRNA knockout: sgATG7, 100 nM | 105
sgRNA knockout: sgATG7, 1000 nM | 86.9
sgRNA knockout: sgATG7, 10000 nM | 28.8
sgRNA knockout: sgERN1, 10 nM | 118
sgRNA knockout: sgERN1, 100 nM | 98
sgRNA knockout: sgERN1, 1000 nM | 118
sgRNA knockout: sgERN1, 10000 nM | 30.8
sgRNA knockout: sgHSF1, 10 nM | 103
sgRNA knockout: sgHSF1, 100 nM | 86.3
sgRNA knockout: sgHSF1, 1000 nM | 101.2
sgRNA knockout: sgHSF1, 10000 nM | 32.9
sgRNA knockout: sgHSF2, 10 nM | 84.6
sgRNA knockout: sgHSF2, 100 nM | 91.6
sgRNA knockout: sgHSF2, 1000 nM | 107
sgRNA knockout: sgHSF2, 10000 nM | 29
sgRNA knockout: sgKEAP1, 10 nM | 99.2
sgRNA knockout: sgKEAP1, 100 nM | 104
sgRNA knockout: sgKEAP1, 1000 nM | 121
sgRNA knockout: sgKEAP1, 10000 nM | 36.9
sgRNA knockout: sgNFE2L2, 10 nM | 104
sgRNA knockout: sgNFE2L2, 100 nM | 82.9
sgRNA knockout: sgNFE2L2, 1000 nM | 105.2
sgRNA knockout: sgNFE2L2, 10000 nM | 22.7
sgRNA knockout: sgSLC35F2, 10 nM | 106
sgRNA knockout: sgSLC35F2, 100 nM | 107
sgRNA knockout: sgSLC35F2, 1000 nM | 88.2
sgRNA knockout: sgSLC35F2, 10000 nM | 25.3
sgRNA knockout: sgXBP1, 10 nM | 87.5
sgRNA knockout: sgXBP1, 100 nM | 98.8
sgRNA knockout: sgXBP1, 1000 nM | 103
sgRNA knockout: sgXBP1, 10000 nM | 30.6

CN1CCN(CCCN2c3ccccc3Sc3ccc(C(F)(F)F)cc32)CC1 [Trifluoperazine]
Conditions | relative cell number
sgRNA knockout: sgATF3, 10 nM | 64.1
sgRNA knockout: sgATF3, 100 nM | 100
sgRNA knockout: sgATF3, 1000 nM | 98.2
sgRNA knockout: sgATF3, 10000 nM | 51.16
sgRNA knockout: sgATF4, 10 nM | 92.9
sgRNA knockout: sgATF4, 100 nM | 88.6
sgRNA knockout: sgATF4, 1000 nM | 94.8
sgRNA knockout: sgATF4, 10000 nM | 47.8
sgRNA knockout: sgATF6, 10 nM | 70.9
sgRNA knockout: sgATF6, 100 nM | 81.3
sgRNA knockout: sgATF6, 1000 nM | 84.1
sgRNA knockout: sgATF6, 10000 nM | 53
sgRNA knockout: sgATG7, 10 nM | 67.5
sgRNA knockout: sgATG7, 100 nM | 84.7
sgRNA knockout: sgATG7, 1000 nM | 92.6
sgRNA knockout: sgATG7, 10000 nM | 50.6
sgRNA knockout: sgERN1, 10 nM | 68.5
sgRNA knockout: sgERN1, 100 nM | 82.6
sgRNA knockout: sgERN1, 1000 nM | 80.3
sgRNA knockout: sgERN1, 10000 nM | 52.4
sgRNA knockout: sgHSF1, 10 nM | 83.3
sgRNA knockout: sgHSF1, 100 nM | 72.5
sgRNA knockout: sgHSF1, 1000 nM | 73.7
sgRNA knockout: sgHSF1, 10000 nM | 48.5
sgRNA knockout: sgHSF2, 10 nM | 81.6
sgRNA knockout: sgHSF2, 100 nM | 72.4
sgRNA knockout: sgHSF2, 1000 nM | 91
sgRNA knockout: sgHSF2, 10000 nM | 45.4
sgRNA knockout: sgKEAP1, 10 nM | 84.4
sgRNA knockout: sgKEAP1, 100 nM | 93.7
sgRNA knockout: sgKEAP1, 1000 nM | 95.9
sgRNA knockout: sgKEAP1, 10000 nM | 58.6
sgRNA knockout: sgNFE2L2, 10 nM | 70.5
sgRNA knockout: sgNFE2L2, 100 nM | 88.2
sgRNA knockout: sgNFE2L2, 1000 nM | 89.2
sgRNA knockout: sgNFE2L2, 10000 nM | 51.2
sgRNA knockout: sgSLC35F2, 10 nM | 87.233
sgRNA knockout: sgSLC35F2, 100 nM | 93.4
sgRNA knockout: sgSLC35F2, 1000 nM | 73.4
sgRNA knockout: sgSLC35F2, 10000 nM | 46.9
sgRNA knockout: sgXBP1, 10 nM | 93.1
sgRNA knockout: sgXBP1, 100 nM | 108
sgRNA knockout: sgXBP1, 1000 nM | 93.2
sgRNA knockout: sgXBP1, 10000 nM | 58.4
